Here are results for 1 molecule from PMC6928011.

These are yes or no findings as the source states them, for the method shown. Binding seen in cells or lysates may run through a third protein. Some binding calls cover weakened binding; strength is not graded here. Tags and fused reporters may be left off the sequences shown.

This assay deals with T1, TagRFP657-MamK translational fusion protein (not stated (expressed in Magnetospirillum gryphiswaldense MSR-1)) (UniProt Q6NE59).
T1 sequence: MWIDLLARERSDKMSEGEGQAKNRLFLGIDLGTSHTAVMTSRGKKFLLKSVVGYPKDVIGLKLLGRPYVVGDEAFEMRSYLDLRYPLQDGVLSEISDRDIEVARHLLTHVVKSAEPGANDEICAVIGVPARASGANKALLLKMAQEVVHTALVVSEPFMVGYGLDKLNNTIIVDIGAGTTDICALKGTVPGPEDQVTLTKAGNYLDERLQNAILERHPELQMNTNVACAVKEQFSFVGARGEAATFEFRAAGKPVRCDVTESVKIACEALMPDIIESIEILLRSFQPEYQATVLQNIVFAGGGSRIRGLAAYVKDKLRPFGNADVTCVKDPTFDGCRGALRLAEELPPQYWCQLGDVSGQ
Put plainly: FRET or BRET; FLIM-FRET (TCSPC) in living MSR-1 cells embedded in 1% low-melt agarose, BR buffer; donor phiYFP on MamJ, acceptor TagRFP657 on MamK; measured before and after application of a magnetic torque (50 mT, 10 rotations of two magnets up to 270°). On the technique in general: In BRET a luciferase serves as donor, and the signal depends on an acceptor being close.

B1: MamJ-phiYFP translational fusion protein (protein, UniProt V6F519 1-466)
chain: MAKNRRDRGTDLPGDGDQKISTGPEIVSVTVHPSPNLAAAAKPVQGDIWASLLESSPWSANQGGLVETAQPPSAPIRSQDPVPVADLVNRWSQPIWRTAPLAGNAESSEEGVVAPSLTQSDSVLAVSDLVIDVQPETDAEVEVSIEPEPALVEPVIEIEAEAAEVEPEPAPVADLVNRWAQPIWRTAPLAGNAESSEEGVVAPSLTQSDSVLAVSDLVIDVQPEANAEVEVSIEPEPALVEPVIEIEAEAAEVEPEPAPVEPVIEIEAEAAEVEPEPAPVEPVIEIEAEAAEVEPEPAPVEPAIEIEAIRVELEPVLIDEVVELVTEFEYSQAESVASADLIANPAPAESSRLAELLDEAAAIAAPAVAVAVEATRQPNKITASVKKRAPVQEVPVEDLLGGIFGVAGSAVRGVFTIGGGFVDGVVKGGRLVGSNVVAGTRRLAQTIEVSCGSCSSPKCDAEDKNK
B1: the binding entry is reported as “binds”.
